For the test, the system named is P388 leukemia ip, CD2F1 mice, survival T/C. Briefly: NCI In Vivo Anticancer Drug Screen. Data for tumor model P388 Leukemia (intraperitoneal) in CD2F1 (CDF1) mice. The following applies: T/C endpoint: median survival time, higher T/C = longer survival.
Setting [1] is: dose: 25.0 mg/kg/injection, schedule: Q01DX005 (ip), vehicle: Klucel (hydroxypropylcellulose) (HPC).
The mark [2] stands for this setting: dose: 50.0 mg/kg/injection, schedule: Q01DX005 (ip), vehicle: Klucel (hydroxypropylcellulose) (HPC).
[3] abbreviates: dose: 100.0 mg/kg/injection, schedule: Q01DX005 (ip), vehicle: Klucel (hydroxypropylcellulose) (HPC).
The mark [4] stands for this setting: dose: 200.0 mg/kg/injection, schedule: Q01DX005 (ip), vehicle: Klucel (hydroxypropylcellulose) (HPC).
Where [5] appears, read: dose: 100.0 mg/kg/injection, schedule: Q01DX009 (ip), vehicle: saline with Tween-80.
The mark [6] stands for this setting: dose: 200.0 mg/kg/injection, schedule: Q01DX009 (ip), vehicle: saline with Tween-80.
Setting [7] is: dose: 25.0 mg/kg/injection, schedule: Q01DX009 (ip), vehicle: saline with Tween-80.
[8] abbreviates: dose: 100.0 mg/kg/injection, schedule: Q01DX005 (ip), vehicle: saline with Tween-80.
The mark [9] stands for this setting: dose: 50.0 mg/kg/injection, schedule: Q01DX005 (ip), vehicle: saline with Tween-80.
The mark [10] stands for this setting: dose: 200.0 mg/kg/injection, schedule: Q01DX005 (ip), vehicle: saline with Tween-80.

The list is a part of this screen's results and no random one: it gathers tests that were run many times, whatever their T/C, doses with no T/C, and many T/C values between a quarter and a half above the control. Other doses and runs of a compound stand elsewhere. T/C is the treated group as % of the vehicle group. Some doses have a count of surviving animals in place of a T/C: the source files T/C as zero there, which appears to mark a toxic dose or a test without result, not a measured value. Some survivor counts are full or nearly so, which does not show that the dose was tolerated: the source hardly ever lists a survival T/C far under the control, and the zero likely stands for such cases as well. Survivors were counted at the toxicity check, usually on the fifth day, unless a day is given; later deaths do not show. Schedule codes are those of the source, read here as Q, the interval in days (D) or hours (H), X, the number of doses. Where survival is the endpoint, the PubChem record calls one and a half times the control and up active, and a quarter to a half above the control has no call in these data; cut-offs in other NCI protocols can differ. Brackets with × give the number of equal values in this list. Some T/C values are followed by the survivors on the day toxicity was checked, most often the fifth; without a count, all were alive then. Some doses were run more than once; their values stand side by side, smallest first.

With `COc1ccc(-c2nn3c(=O)c(Cc4ccccc4)c(O)nc3nc2-c2ccccc2)cc1`, the survivor count under setting [1] was 6 of 6, the survivor count under setting [2] is 6 of 6, the survivor count under setting [3] is on record as 6 of 6 and the survivor count under setting [4] is recorded as 6 of 6.

On to `O=C1CCCCCC2=NC12` (stereo not given), for which the T/C under setting [2] is 129 [5 of 6 alive] and 137 % of control. Further, the survivor count was 2 of 6 under setting [3] and 0 of 6 under setting [4].

`Nc1ncnc2c1ccn2C1OC2COP(=O)(O)OC2C1O` (stereo not given): the T/C (dose: 4.0 mg/kg/injection, schedule: Q01DX009 (ip), vehicle: saline) is 136 % of control.

For `O=C(Nc1ccccc1Cl)Oc1ccc(-c2ccccc2)cc1Br`, under setting [5], the T/C is 129 and 133 % of control. Further, where the note is “dose: 400.0 mg/kg/injection, schedule: Q01DX009 (ip), vehicle: saline with Tween-80”, the survivor count is recorded as 3 of 6.

Take `COc1cccc2c(NCCCCCCCCNc3c4ccc([N+](=O)[O-])cc4nc4c(OC)cccc34)c3ccc([N+](=O)[O-])cc3nc12`: the T/C is, setting by setting: (dose: 1.25 mg/kg/injection, schedule: Q01DX009 (ip), vehicle: other) 147 % of control; (dose: 2.5 mg/kg/injection, schedule: Q01DX009 (ip), vehicle: other) 142 % of control; (dose: 5.0 mg/kg/injection, schedule: Q01DX009 (ip), vehicle: other) 145 % of control; (dose: 20.0 mg/kg/injection, schedule: Q01DX009 (ip), vehicle: other) 147 % of control; (dose: 40.0 mg/kg/injection, schedule: Q01DX009 (ip), vehicle: other) 130 % of control.

On to `O=C1CN(C2CC2N2CC(=O)OC(=O)C2)CC(=O)O1` (stereo not given), for which, where the note is “dose: 200.0 mg/kg/injection, schedule: Q04DX003 (ip), vehicle: saline with Tween-80”, the survivor count was 5 of 6.

In the case of `Clc1cc(Cl)c(OCC#CI)c(Cl)c1Cl`, the survivor count is on record as 6 of 6 under setting [5]; 2 of 6 under setting [6]; 3 of 6 (dose: 400.0 mg/kg/injection, schedule: Q04DX003 (ip), vehicle: saline with Tween-80).

For `NC(CCC(=O)O)C(=O)Nc1ccc(N(CCCl)CCCl)cc1` (stereo not given), the T/C (dose: 6.25 mg/kg/injection, schedule: Q01DX009 (ip), vehicle: saline with Tween-80) is 138 % of control. The survivor count is 4 of 6 under setting [7]; 1 of 6 (dose: 50.0 mg/kg/injection, schedule: Q01DX009 (ip), vehicle: saline with Tween-80); 0 of 6 under setting [5]; 0 of 6 under setting [6].

Regarding `CCOC(=O)c1ccc2c(c1)nc(-c1ccccn1)n2CCc1ccccn1`, the survivor count under setting [2] is 6 of 6.

Take `O=C(/C(=N/Nc1ccccc1)C(=S)Nc1ccccc1)c1ccccc1`: the survivor count under setting [8] is given as 6 of 6.

As for `Cc1cc2cc3c4c(nnc(NN)c4c2o1)-c1ccccc1CC3`, the survivor count is, setting by setting: (dose: 60.0 mg/kg/injection, schedule: Q01DX005 (ip), vehicle: saline with Tween-80) 3 of 6; (dose: 120.0 mg/kg/injection, schedule: Q01DX005 (ip), vehicle: saline with Tween-80) 3 of 6; (dose: 240.0 mg/kg/injection, schedule: Q01DX005 (ip), vehicle: saline with Tween-80) 0 of 6.

Turning to `CC(C)(C)C1=CC(=O)C(=O)C(C(C)(C)C)=C1`, where the note is “dose: 200.0 mg/kg/injection, schedule: Q01DX009 (ip), vehicle: other”, the survivor count was 0 of 6.

As for `C(=C\CN1CCOCC1)/Cc1cccnc1`, for the setting “dose: 12.5 mg/kg/injection, schedule: Q01DX009 (ip), vehicle: saline with Tween-80”, the T/C was 131 % of control. The survivor count is given as 0 of 6 under setting [5] and 0 of 6 under setting [6].

As to `COc1cc(C(C)c2cc3c(cc2OCCO)OCO3)cc(OC)c1OC` (stereo not given), the T/C reads like this: under setting [9], 98, 102, 104, 109 % of control; under setting [8], 106, 110, 114, 135 % of control; under setting [10], 114, 150, 151 [5 of 6 alive], 166 % of control; (dose: 400.0 mg/kg/injection, schedule: Q01DX005 (ip), vehicle: saline with Tween-80) 149 % of control.

Regarding `O=C1CN(c2ccc(Cl)cc2)C(=O)CN1/N=C/c1ccc(O)c(O)c1`, the survivor count under setting [10] is reported as 6 of 6.

For `CCC(=O)NC(Cc1cccc(F)c1)C(=O)O` (stereo not given), the survivor count is listed as 2 of 6 (dose: 25.0 mg/kg/injection, schedule: Q01DX009 (ip), vehicle: saline); 0 of 6 (dose: 50.0 mg/kg/injection, schedule: Q01DX009 (ip), vehicle: saline); 0 of 6 (dose: 100.0 mg/kg/injection, schedule: Q01DX009 (ip), vehicle: saline); 0 of 6 (dose: 200.0 mg/kg/injection, schedule: Q01DX009 (ip), vehicle: saline).

With `CCOC(=C\C(=O)NC)/C=C/c1ccc([N+](=O)[O-])cc1`, the survivor count is recorded as 6 of 6 under setting [1], 6 of 6 under setting [2], 6 of 6 under setting [3] and 6 of 6 under setting [4].

`CCC(CC)c1ccccn1`: the T/C is 131 % of control (dose: 178.0 mg/kg/injection, schedule: Q04DX003 (ip), vehicle: saline); 140 % of control (dose: 200.0 mg/kg/injection, schedule: Q04DX003 (ip), vehicle: saline); 145 % of control (dose: 266.0 mg/kg/injection, schedule: Q04DX003 (ip), vehicle: saline); 145 % of control (2×) (dose: 400.0 mg/kg/injection, schedule: Q04DX003 (ip), vehicle: saline); 131 % of control (dose: 600.0 mg/kg/injection, schedule: Q04DX003 (ip), vehicle: saline). In addition, the survivor count (dose: 400.0 mg/kg/injection, schedule: Q01DX009 (ip), vehicle: saline) is 0 of 6.

Regarding `N#C/C(=N\Nc1cccc(C(F)(F)F)c1)C(N)=O`, under setting [4], the survivor count is 0 of 5.

As for `Cc1ccc(S(=O)(=O)N/N=C\c2c(-c3ccc(Cl)cc3)nc3sccn23)cc1`, the survivor count (dose: 400.0 mg/kg/injection, schedule: Q01DX001 (ip), vehicle: Klucel (hydroxypropylcellulose) (HPC)) is listed as 6 of 6.

For the compound `CCOC(=O)c1ccc(NN=NC)cc1`, under setting [7], the T/C was 131 and 133 % of control. The survivor count under setting [6] is listed as 6 of 6.

For the compound `C(=NCc1ccccc1)c1ccccc1-c1ccccc1C=NCc1ccccc1`, the survivor count (dose: 25.0 mg/kg/injection, schedule: Q01DX009 (ip), vehicle: Klucel (hydroxypropylcellulose) (HPC)) is on record as 6 of 6.

On to `O=C1C=C(NCCNCCO)C(=O)c2ccccc21`, for which the survivor count is 3 of 6 (dose: 200.0 mg/kg/injection, schedule: Q01DX009 (ip), vehicle: distilled water + Tween-80) and 0 of 6 (dose: 400.0 mg/kg/injection, schedule: Q01DX009 (ip), vehicle: distilled water + Tween-80).

Turning to `COc1c2occc2c(CN)c2ccc(=O)oc12`, the survivor count is on record as 0 of 6 (dose: 60.0 mg/kg/injection, schedule: Q01DX005 (ip), vehicle: saline); 0 of 6 (dose: 120.0 mg/kg/injection, schedule: Q01DX005 (ip), vehicle: saline); 0 of 6 (dose: 240.0 mg/kg/injection, schedule: Q01DX005 (ip), vehicle: saline).

For the compound `O=C(Nc1cccc(Cl)c1)OCCCc1ccncc1`, the survivor count under setting [6] is given as 6 of 6.

`C/C(=N/NC(=S)N1CC2CCC(CC2)C1)c1cnccn1`: the survivor count is reported as 5 of 5 (dose: 25.0 mg/kg/injection, schedule: Q01DX005 (ip), vehicle: saline with Tween-80); 4 of 5 under setting [9]; 0 of 5 under setting [8]; 0 of 5 under setting [10].

On to `CNC1CC(C)(O)Cc2cc3c(c(O)c21)C(=O)c1c(O)cc2c(c1C3=O)OC1OC2(C)C(O)C(N(C)C)C1O` (stereo not given), for which the T/C by setting is: (dose: 3.12 mg/kg/injection, schedule: Q01DX009 (ip), vehicle: other) 129 % of control; (dose: 6.25 mg/kg/injection, schedule: Q01DX009 (ip), vehicle: other) 142 % of control. In addition, the survivor count (dose: 50.0 mg/kg/injection, schedule: Q01DX009 (ip), vehicle: other) is 5 of 6.

The values above are taken from PubChem BioAssay AID330 (DTP/NCI, 2004).
